Drawing on PMC10897894, this text covers binding for one substance.

Protein sequences, listed by entry. Tags and fused reporters are not part of them.
UniProt P46527: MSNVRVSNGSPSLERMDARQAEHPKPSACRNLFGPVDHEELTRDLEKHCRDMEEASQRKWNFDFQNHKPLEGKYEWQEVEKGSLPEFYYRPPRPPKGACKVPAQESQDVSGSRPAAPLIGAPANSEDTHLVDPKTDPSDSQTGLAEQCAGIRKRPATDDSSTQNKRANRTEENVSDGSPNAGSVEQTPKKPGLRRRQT
UniProt Q9HCE7: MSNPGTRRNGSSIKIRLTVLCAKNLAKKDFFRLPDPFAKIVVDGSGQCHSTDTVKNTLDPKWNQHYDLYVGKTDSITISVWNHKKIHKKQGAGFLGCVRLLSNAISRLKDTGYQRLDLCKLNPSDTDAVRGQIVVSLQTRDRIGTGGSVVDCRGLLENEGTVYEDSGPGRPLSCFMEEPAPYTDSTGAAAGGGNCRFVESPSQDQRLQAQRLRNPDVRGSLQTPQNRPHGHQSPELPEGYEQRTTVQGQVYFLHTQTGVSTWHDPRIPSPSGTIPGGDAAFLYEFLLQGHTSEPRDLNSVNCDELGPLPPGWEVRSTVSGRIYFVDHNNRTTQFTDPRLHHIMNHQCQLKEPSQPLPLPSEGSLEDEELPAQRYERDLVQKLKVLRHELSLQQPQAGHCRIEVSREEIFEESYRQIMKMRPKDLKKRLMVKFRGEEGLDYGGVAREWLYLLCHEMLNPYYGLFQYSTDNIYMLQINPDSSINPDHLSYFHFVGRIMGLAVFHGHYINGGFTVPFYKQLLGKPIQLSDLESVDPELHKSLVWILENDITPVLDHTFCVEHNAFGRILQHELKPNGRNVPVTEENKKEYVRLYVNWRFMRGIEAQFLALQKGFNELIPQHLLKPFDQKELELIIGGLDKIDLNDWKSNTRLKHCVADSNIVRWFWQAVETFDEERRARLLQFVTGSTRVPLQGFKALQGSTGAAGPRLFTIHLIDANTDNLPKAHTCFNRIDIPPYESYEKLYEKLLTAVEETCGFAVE

These are yes or no findings as the source states them, for the method shown. Some results given as binding are weak or reduced against the parent protein; the word gives no strength.

The target of the test is (His)6-p27 (UniProt P46527). In words: pull-down; FLAG-SMURF1 rocked with (His)6-p27 and BSA-blocked Ni-NTA beads, 4 °C, 2 h, 40 mM Tris pH 7.6, 5 mM MgCl2, 2 mM DTT; beads washed 5x; Western blot for SMURF1 and p27; both purified.

With “FLAG-SMURF1 (from UniProt Q9HCE7 1-757) (enzyme)”, the binding entry is on record as “binds”.
